This is one part of the list.
B1: il10ra_site1_sap_11_mot_HHH_b2_01447_af2_000000258_0001_1_20_H_._HHH_b1_03174_0001_0000400034_0000001_0_0001 (protein)
chain: SSSSDEEVEELIEQVKELLEKGDPERALQVVYEAVRIAAELGDEELLRRLQELIQEIYQVSSSSS
B2: il10ra_site1_sap_23_mot_HHH_b1_07286_af2_000000054_0001_1_19_H_._HHH_b2_05043_0001_0000100017_0000001_0_0001_af2pred_0001 (protein)
chain: SSSSSDEREARVEAEALLFFARYATNPEAVELALKLAEELAEEVNDEELKRKIEEVKEELSSSSS
B3: il10ra_site1_sap_21_mot_HHH_b1_06912_af2_000000235_0001_1_15_H_._HHH_b1_03798_0001_0000300017_0000001_0_0001 (protein)
chain: SSSSTYEQAIENVARQMEETIRRMGNPRAREYLEWLLRAARILGNEELEELIEELLEELRSSSSS
B4: il10ra_site1_sap_14_mot_HHH_b1_03873_af2_000000091_0001_1_14_H_._HHH_b2_04501_0001_0000800065_0000001_0_0001 (protein)
chain: SSSSSSEEQEEFRELEKELEEAKSAQERYEILERLIEVASKANDPELERLVHELLRRALRSSSSS
B5: il10ra_site1_sap_25_mot_HHH_b1_03333_000000091_0001_1_17_H_._HHH_b2_05927_af2_0001_0000500033_0000001_0_0001 (protein)
chain: SSSSDEEQQEVVRLAMEVAHLLIRGDHERVEELLEEMEELARELNDPAAERLVEIVREALRSSSS
B6: il10ra_site1_normal_mot_HHH_b1_02708_af2_000000019_0001_23_39_H_._HHH_eva_0544_af2_0002_0000200010_0000001_0 (protein)
chain: SSSSDEEEEELEKLLEEAEKLGNEAAFAVARLALHLLRLGRIDEEYIKILEHFIENALRQSSSSS
B7: il10ra_site1_normal_mot_HHH_b1_02062_000000185_0001_1_20_H_._HHH_b1_07949_0001_0000200011_0000001_0 (protein)
chain: SSSSNREAYELSREAAELVSEGDFEEARRVLEEAEEIAREAGNVNTLVTIEYLLELIERLLSSSS
B8: il10ra_site1_sap_12_mot_HHH_b1_06914_000000280_0001_1_18_H_._HHH_b2_06282_af2_0001_0000100003_0000002_0_0001 (protein)
chain: SSSSDDERSSEFMLLALELAIELGDEEQIRATASFIKALAEATNDEELEKELERLQEELGSSSSS
B9: il10ra_site1_normal_mot_HHH_b2_02900_000000189_0001_39_52_H_._HHH_b2_05056_0001_0000400020_0000002_0_af2pred_0001 (protein)
chain: SSSSSEHLEEAVKRLLRAAERAYELGDPEAAKLIVHFALALARAANNEELVRELEKLLEELSSSS
B10: il10ra_site1_sap_16_mot_HHH_b2_07144_000000289_0001_1_18_H_._HHH_b2_01768_0001_0000300036_0000001_0_0001 (protein)
chain: SSSSSAEESLEFLLLAVELAAENNDPEQVRAALRFAKRMAKWLNDEEVLKQLEELEEEFNSSSSS
B11: il10ra_site1_normal_mot_HHH_b2_00479_000000091_0001_1_12_H_._HHH_b2_03388_af2_0001_0000400024_0000002_0 (protein)
chain: SSSSTEENDEVYKLIREALELMARGNPEEARKVLEEAEEILEELNNRVLLFNVRFLLRELGSSSS
B12: il10ra_site1_normal_mot_HHH_b2_07442_000000239_0001_40_54_H_._ems_3hM_1358_0001_0000100001_0000001_1 (protein)
chain: DEKTSREAYEVSRLLAEADRRVKDEETLKELEELIQLLLEALIRNDDETLRELIEKAEEVVKEYS
B13: il10ra_site1_sap_12_mot_HHH_b1_00456_000000263_0001_1_17_H_._HHH_b1_08710_0001_0000300015_0000001_0_0001 (protein)
chain: SSSSDEELQEALELSKEAFELLLRGNPEEAKKVLEEALELAERGNDERLAKVIRDLLKVIDSSSS
B14: il10ra_site1_normal_mot_HHH_b1_08477_000000091_0001_40_57_H_._HHH_b1_03479_0001_0000200016_0000001_0 (protein)
chain: SSSSSEEEERVRQALRFAEALYKSGNPEAAESLLRVLVQSLRRLGNEELVELVEQVLEELNSSSS
B15: il10ra_site1_sap_16_mot_HHH_b2_07442_000000239_0001_40_54_H_._HHH_b2_00074_0001_0001000052_0000001_0_0001 (protein)
chain: SSSSSDLEELIEELEELVERNDMEEFHKVLREALEIAAELGDEEALERLLELTHKAVRASSSSSS
B16: il10ra_site1_sap_11_mot_HHH_b1_00666_000000226_0001_43_56_H_._HHH_b1_00924_af2_0001_0000300013_0000001_0_0001 (protein)
chain: SSSSEELYELIRKVLELRARGDPEEALRLLEEAEELAKEEGDFAFLFAIRHLLRDLEELLSSSSS
B17: il10ra_site1_normal_mot_HHH_b1_06837_000000150_0001_20_37_H_._HHH_b2_06947_0001_0000300009_0000001_0_af2pred_0001 (protein)
chain: SSSSSENEEVRRLLREAAELLNDGNPEEAKKVLEEAHELAEEANDHVARAVIEFLEKIIDSSSSS
B18: il10ra_site1_sap_17_mot_HHH_b1_03314_af2_000000278_0001_42_55_H_._HHH_b2_07118_0001_0000500022_0000002_0_0001 (protein)
chain: SSSSSRAEELARAAAKLVEQAIEHGDEKLARFMLLSLEMLAEESNDPELRKEVEELERELGSSSS
B19: il10ra_site1_sap_18_mot_HHH_b1_05189_000000097_0001_43_57_H_._HHH_b2_01591_af2_0001_0000400030_0000001_0_0001 (protein)
chain: SSSSSEREELAEAIIRLIEQMLKWNDEEALEHLLLALEMLVEEIGDPELRERLEELRELLSSSSS
B20: il10ra_site1_sap_21_mot_HHH_b1_03763_000000278_0001_22_38_H_._HHH_b2_05927_0001_0000300030_0000001_0_0001 (protein)
chain: SSSSDEVVQRAYRLLEEAVELDHKGNPEEAREVLEEVEELAEEANSWVLKAQVKFLLRLLESSSS
B21: il10ra_site1_normal_mot_HHH_b2_03328_af2_000000127_0001_1_19_H_._HHH_b2_01688_0001_0000200028_0000001_0 (protein)
chain: SSSSTEVAEKVYRLSREAAELFYQGNEEEAEEVLEEAERLAEENNNENLLFQVRFLLRQIGSSSS
B22: il10ra_site1_normal_mot_HHH_b2_00277_af2_000000172_0001_1_17_H_._HHH_b1_03809_0001_0000700027_0000001_0_af2pred_0001 (protein)
chain: SSSSSSDIEEKVKELLEEAERIDDPERLSYVLIRAFALATKNNNEELRKEVEEVAKKLVSSSSSS
B23: il10ra_site1_normal_mot_HHH_b1_06240_000000244_0001_42_57_H_._ems_3hC_645_0001_0001_0000200008_0000001_0 (protein)
chain: SSSEEEVEELVKEVREVAEERGDPKARAAARFYEALARDARERNDEEALKQVSLALRAFLDSFSS
B24: il10ra_site1_sap_33_mot_104c758fc23488854646035ccb2100c6_0001_000000282_0001_15_29_H_._4a1b898246c0e7e220e534f5fba321b4_0001_0001_0000300027_0000002_0_0001 (protein)
chain: SSSSDEEDQEVLELSKEIFRLALRGNEEEARELLEKAIELAREIGDERMLKVLEDLLRVLSSSSS
B25: il10ra_site1_normal_mot_HHH_b2_07144_000000289_0001_1_18_H_._HHH_b2_03346_0001_0000400043_0000002_0_af2pred_0001 (protein)
chain: SSSSSSEAEQVYELSREILEVLAEGDEERAKELLEELEELAEESNDPLAEAILRALRSNLSSSSS
B26: il10ra_site1_normal_mot_HHH_b2_03183_af2_000000055_0001_40_56_H_._HHH_b2_02338_af2_0001_0000500011_0000001_0 (protein)
chain: SSSSSQMEELLRAAVILIEQALRFGDERAARLLIESAKMVAERLGDEETLEEIEELEKRVNSSSS
B27: il10ra_site1_normal_mot_HHH_b1_05609_af2_000000134_0001_1_18_H_._HHH_b1_01365_0001_0000100009_0000001_0 (protein)
chain: SSSSDEELEEVLRLSRRIFRLLLRGNEEEARELLEQAIELAREIGDERALRNLESLLQILSSSSS
B28: il10ra_site1_normal_mot_HHH_b1_05357_000000034_0001_23_39_H_._HHH_b1_04796_af2_0001_0000200012_0000001_0_af2pred_0001 (protein)
chain: SSSSSEEELEKLLEKVEELIEKNDPERAKEYIRRALHLAIELRDEHVLRKLLELWILVARLSSSS
B29: il10ra_site1_sap_8_mot_HHH_b2_03328_af2_000000127_0001_1_19_H_._HHH_b1_04080_0001_0000300038_0000001_0_0001 (protein)
chain: SSSSDEDWEEYRKLLQEFVEADHEGDEEELEELLKKLRELAEKANSDILRAQVEWLEELLSSSSS
B30: il10ra_site1_normal_mot_HHH_b1_06912_af2_000000235_0001_1_15_H_._HHH_b2_06035_af2_0001_0000200006_0000001_0_af2pred_0001 (protein)
chain: SSSSSDERAQEVLELIRKALEIDDPEEAQEVLEEALRIAEEANNITFRHIIELLLRELNSSSSSS
B31: il10ra_site1_sap_21_mot_7d06c54ffdcd64f04fd99e25e06e3333_0001_af2_000000000_0001_35_49_H_._036bed11a46af16b1bcff1c055f4941a_0001_0001_0000300008_0000001_0_0001 (protein)
chain: SSSDREEFNEIARKAVRLAFHLNDEETLRELWELIKRYIEEQDPRLLEELEELVEELERLYTSSS
B32: il10ra_site1_normal_mot_HHH_b1_06816_000000239_0001_1_19_H_._HHH_b1_01093_0001_0000300045_0000002_0 (protein)
chain: SSSSDEEFELAEEAIKQAIELYRNGNPEEAERLLREVIEELEELGNEAVVFSLRHLLRALRSSSS
B33: il10ra_site1_normal_mot_HHH_b1_06994_000000193_0001_40_55_H_._HHH_b1_03568_af2_0001_0000300012_0000001_0 (protein)
chain: SSSSQEEELAKALARLIKQALEHGDERAVRILLISLKLIAEELNDEELKEEIEQLERLLEELSSS
B34: il10ra_site1_sap_22_mot_HHH_b2_02053_af2_000000006_0001_3_19_H_._HHH_b1_00803_af2_0001_0000900077_0000001_0_0001_af2pred_0001 (protein)
chain: SSSSDVEEEIRELVERAEELAEQGNPREAAKLLIKAARLAAELGDPELARRIAELYAESLSSSSS
B35: il10ra_site1_sap_26_mot_HHH_b2_07145_000000168_0001_24_40_H_._HHH_b2_05804_0001_0000200020_0000001_0_0001 (protein)
chain: SSSSDQARELAEAALRLARQFDDPRNVEMMVLAVELLVEETGDPELEELLEEIRELLEELRSSSS
B36: il10ra_site1_normal_mot_HHH_b1_04275_000000150_0001_22_39_H_._HHH_b2_08116_af2_0001_0000400013_0000001_1 (protein)
chain: SSSSSDERQEALELAQEAFRALLRGDEEEAERLLREALELAERGNDERLARLIEILLHTLSSSSS
B37: il10ra_site1_sap_24_mot_HHH_b2_04680_000000215_0001_1_16_H_._HHH_b2_03951_af2_0001_0000500027_0000001_0_0001 (protein)
chain: SSSSSSSSEEEVEEILEEAEKVDDEEEASRILLEALELALQLQDPEALRLVWRVVHRFSSSSSSS

These binders were tested against il10ra, Q13651 (assay: yeast display titration).

Row | Binder | apparent Kd
1 | B1 | inactive: no binding seen
2 | B2 | inactive: no binding seen
3 | B3 | inactive: no binding seen
4 | B4 | inactive: no binding seen
5 | B5 | inactive: > 178 nM
6 | B6 | inactive: no binding seen
7 | B7 | inactive: no binding seen
8 | B8 | inactive: no binding seen
9 | B9 | inactive: no binding seen
10 | B10 | inactive: no binding seen
11 | B11 | inactive: no binding seen
12 | B12 | inactive: no binding seen
13 | B13 | inactive: no binding seen
14 | B14 | inactive: no binding seen
15 | B15 | inactive: no binding seen
16 | B16 | inactive: no binding seen
17 | B17 | inactive: no binding seen
18 | B18 | inactive: no binding seen
19 | B19 | inactive: no binding seen

As entered above.
apparent Kd with B14 reads inactive: no binding seen
apparent Kd with B5 reads inactive: > 178 nM
apparent Kd with B8 reads inactive: no binding seen

Continuation:

Row | Binder | apparent Kd
20 | B20 | inactive: no binding seen
21 | B21 | inactive: no binding seen
22 | B22 | inactive: no binding seen
23 | B23 | inactive: no binding seen
24 | B24 | inactive: no binding seen
25 | B25 | inactive: no binding seen
26 | B26 | inactive: no binding seen
27 | B27 | inactive: no binding seen
28 | B28 | inactive: no binding seen
29 | B29 | inactive: no binding seen
30 | B30 | inactive: no binding seen
31 | B31 | inactive: no binding seen
32 | B32 | inactive: no binding seen
33 | B33 | inactive: no binding seen
34 | B34 | inactive: no binding seen
35 | B35 | inactive: no binding seen
36 | B36 | inactive: no binding seen
37 | B37 | inactive: no binding seen
